Data taken from publication PMC8527565.
Results are given in words; binding and its absence hold for the method and conditions named. Binding seen in cells or lysates may run through a third protein. Some results given as binding are weak or reduced against the parent protein; the word gives no strength.

Protein sequences, listed by entry. Tags and fused reporters are not part of them.
UniProt Q9UNN5: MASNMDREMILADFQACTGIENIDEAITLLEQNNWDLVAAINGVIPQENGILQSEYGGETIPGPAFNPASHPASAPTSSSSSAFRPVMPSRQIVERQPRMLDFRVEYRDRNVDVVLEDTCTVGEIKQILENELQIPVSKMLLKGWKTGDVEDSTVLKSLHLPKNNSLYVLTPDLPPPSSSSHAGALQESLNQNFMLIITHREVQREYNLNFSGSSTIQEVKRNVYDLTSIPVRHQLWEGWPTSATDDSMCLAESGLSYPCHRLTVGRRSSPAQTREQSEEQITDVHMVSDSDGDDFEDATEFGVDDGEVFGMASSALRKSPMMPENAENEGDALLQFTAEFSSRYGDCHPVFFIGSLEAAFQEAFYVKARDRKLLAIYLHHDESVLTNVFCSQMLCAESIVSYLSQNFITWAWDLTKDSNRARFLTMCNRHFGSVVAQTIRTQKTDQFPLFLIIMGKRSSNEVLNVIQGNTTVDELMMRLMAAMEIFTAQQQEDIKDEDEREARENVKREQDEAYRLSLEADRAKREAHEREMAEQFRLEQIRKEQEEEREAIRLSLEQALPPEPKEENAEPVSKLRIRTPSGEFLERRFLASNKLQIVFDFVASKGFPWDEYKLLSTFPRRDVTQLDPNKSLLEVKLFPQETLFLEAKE
UniProt P49005: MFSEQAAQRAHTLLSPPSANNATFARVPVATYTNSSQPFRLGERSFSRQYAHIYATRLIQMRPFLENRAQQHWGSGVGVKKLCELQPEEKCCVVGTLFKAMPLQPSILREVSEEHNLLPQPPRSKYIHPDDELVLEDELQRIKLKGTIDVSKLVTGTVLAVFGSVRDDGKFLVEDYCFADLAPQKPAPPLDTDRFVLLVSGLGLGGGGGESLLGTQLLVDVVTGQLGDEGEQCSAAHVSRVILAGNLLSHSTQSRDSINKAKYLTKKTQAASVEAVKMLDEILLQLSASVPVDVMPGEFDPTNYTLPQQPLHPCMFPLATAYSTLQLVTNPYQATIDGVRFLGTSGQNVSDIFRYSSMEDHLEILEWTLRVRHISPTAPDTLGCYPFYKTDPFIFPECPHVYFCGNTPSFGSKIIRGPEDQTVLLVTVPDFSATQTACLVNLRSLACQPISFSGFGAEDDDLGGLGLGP

Biological target: FAS-associated factor 1 (FAF1) (human (endogenous in HCT116)) (UniProt Q9UNN5)
Assay: co-IP; immunoprecipitation of endogenous FAF1, Western blot; cells with and without USP7 inhibition (Figure S4M); cell line and buffers not shown

binding: binds
Substance: POLD2 (from UniProt P49005 1-469)
